No constants are given. Whether binding was seen depends on the method and setting. Binding seen in cells or lysates may run through a third protein.
Biological target: T1, murine cysteine rich intestinal protein 2 (mouse) (UniProt Q9DCT8)
T1 sequence: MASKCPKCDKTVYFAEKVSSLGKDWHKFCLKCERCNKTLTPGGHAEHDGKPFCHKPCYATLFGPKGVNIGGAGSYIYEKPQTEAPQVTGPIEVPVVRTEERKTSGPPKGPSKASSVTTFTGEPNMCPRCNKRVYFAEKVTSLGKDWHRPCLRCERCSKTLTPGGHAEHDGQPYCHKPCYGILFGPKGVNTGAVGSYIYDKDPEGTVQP
Test: co-IP; immunoprecipitation attempts of mCrip2 and Brg1; no method or conditions told

Sequences of proteins named here, by UniProt entry; tags and fusion partners are left off.
UniProt Q3TKT4: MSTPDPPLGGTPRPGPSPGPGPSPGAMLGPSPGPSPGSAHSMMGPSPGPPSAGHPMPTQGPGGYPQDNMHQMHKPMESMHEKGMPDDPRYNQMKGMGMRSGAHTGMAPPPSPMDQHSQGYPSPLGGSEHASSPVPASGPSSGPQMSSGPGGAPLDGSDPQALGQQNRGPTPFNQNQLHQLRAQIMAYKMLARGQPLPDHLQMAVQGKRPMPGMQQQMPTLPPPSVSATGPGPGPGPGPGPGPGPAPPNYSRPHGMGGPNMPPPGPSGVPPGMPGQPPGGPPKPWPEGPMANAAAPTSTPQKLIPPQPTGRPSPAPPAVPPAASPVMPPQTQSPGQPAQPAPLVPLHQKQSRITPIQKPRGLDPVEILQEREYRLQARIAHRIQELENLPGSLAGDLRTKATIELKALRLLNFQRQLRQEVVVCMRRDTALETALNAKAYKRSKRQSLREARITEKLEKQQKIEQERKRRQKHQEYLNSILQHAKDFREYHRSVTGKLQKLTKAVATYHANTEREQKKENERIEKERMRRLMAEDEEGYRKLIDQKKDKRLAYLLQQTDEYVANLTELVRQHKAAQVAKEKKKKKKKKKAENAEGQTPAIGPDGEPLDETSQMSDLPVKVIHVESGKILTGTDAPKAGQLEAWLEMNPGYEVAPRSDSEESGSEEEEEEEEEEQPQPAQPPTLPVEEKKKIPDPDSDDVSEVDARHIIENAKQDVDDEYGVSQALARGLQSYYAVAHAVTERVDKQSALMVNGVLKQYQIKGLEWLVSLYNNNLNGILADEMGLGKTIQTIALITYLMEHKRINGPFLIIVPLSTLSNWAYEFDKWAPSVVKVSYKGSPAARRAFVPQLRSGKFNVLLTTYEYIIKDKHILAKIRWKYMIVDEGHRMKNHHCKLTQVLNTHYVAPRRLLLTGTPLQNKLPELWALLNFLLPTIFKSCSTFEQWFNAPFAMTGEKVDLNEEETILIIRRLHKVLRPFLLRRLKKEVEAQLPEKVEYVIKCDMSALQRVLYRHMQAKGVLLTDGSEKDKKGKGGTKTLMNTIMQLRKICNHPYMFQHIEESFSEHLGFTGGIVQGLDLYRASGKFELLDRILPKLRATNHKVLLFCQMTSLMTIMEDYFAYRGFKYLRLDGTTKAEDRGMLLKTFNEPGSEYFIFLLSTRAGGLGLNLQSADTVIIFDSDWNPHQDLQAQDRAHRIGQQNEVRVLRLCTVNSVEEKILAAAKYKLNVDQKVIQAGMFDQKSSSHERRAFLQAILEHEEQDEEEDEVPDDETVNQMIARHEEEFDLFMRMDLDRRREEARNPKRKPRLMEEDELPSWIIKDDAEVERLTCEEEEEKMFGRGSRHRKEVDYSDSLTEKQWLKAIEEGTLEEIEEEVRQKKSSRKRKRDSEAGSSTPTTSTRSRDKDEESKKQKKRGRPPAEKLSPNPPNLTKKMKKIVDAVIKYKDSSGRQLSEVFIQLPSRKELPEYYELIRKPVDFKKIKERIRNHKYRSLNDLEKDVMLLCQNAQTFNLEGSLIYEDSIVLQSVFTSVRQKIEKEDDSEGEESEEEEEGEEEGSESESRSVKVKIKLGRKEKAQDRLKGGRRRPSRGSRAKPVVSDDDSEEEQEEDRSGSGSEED

Brg1 (from UniProt Q3TKT4 1-1613)
binding: no binding
